In article PMC5122375:
No constants are given. Whether binding was seen depends on the method and setting. For some assays here: In cells and extracts the contact can be indirect. Some results given as binding are weak or reduced against the parent protein; the word gives no strength.

By UniProt entry, the sequences of proteins in these tests, tags left out. Where a name states a change or a piece, a line headed by the entry shows the natural chain unless it says otherwise.
UniProt P14618: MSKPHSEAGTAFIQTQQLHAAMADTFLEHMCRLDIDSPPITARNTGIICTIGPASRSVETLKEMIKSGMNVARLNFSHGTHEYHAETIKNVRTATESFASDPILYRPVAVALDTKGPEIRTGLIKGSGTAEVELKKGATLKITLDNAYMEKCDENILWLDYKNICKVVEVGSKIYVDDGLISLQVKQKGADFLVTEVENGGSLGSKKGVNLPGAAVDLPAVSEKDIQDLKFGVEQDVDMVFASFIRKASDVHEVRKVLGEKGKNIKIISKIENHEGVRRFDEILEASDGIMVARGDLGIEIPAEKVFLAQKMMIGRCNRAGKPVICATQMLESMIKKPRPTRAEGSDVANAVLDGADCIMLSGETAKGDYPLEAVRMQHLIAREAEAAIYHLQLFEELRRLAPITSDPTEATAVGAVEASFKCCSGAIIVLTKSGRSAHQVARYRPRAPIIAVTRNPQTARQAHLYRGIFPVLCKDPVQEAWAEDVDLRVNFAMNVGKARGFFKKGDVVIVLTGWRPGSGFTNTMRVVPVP

B1: H103 scFv Ab (scFv)
scFv: GPAGHGPGAAAESGPGLVRPSGTLSLICAVSGDSISSSIWWSWVRQSPGKGLEWIGYIYHNGNTYYNPSLESRVTISVDTSENQFSLKLSSVTAADTAVYYCARGYDSSGYYWTDDRYYFDYWGQGTLVTVSSGGGGSGGGGSGGGGSNFMLTQPHSVSESPGKTVTISCTGSSGSIASNYVQWYQQRPGSAPTTVIYEDNQRPPGVPDRFSGSIDSSSNSASLTISALETEDEADYYCQSYDSRNIDVVFGGGTKVTVLGAAA

Experiments:
H103 scFv Ab (human) = test: pull-down; hypoxic HCCLM3 lysate precipitated with H103 scFv on Ni- or protein L agarose (agarose without scFv as control); blotted with commercial anti-PKM2 McAb (C-11); only the target purified
human PKM2-flag (human) = human PKM2-flag (human) (UniProt P14618); test: far-Western, overlay or dot blot; lysates of HEK293 cells transfected with PKM2-flag/pCMV-2B or pCMV-2B resolved by SDS-PAGE, blotted and probed with H103 scFv Ab (14.5 ug/mL); only the binder purified

Molecule	binding (H103 scFv Ab (human))	binding (human PKM2-flag (human))
M2 splice isoform of pyruvate kinase (PKM2) (from UniProt P14618-1 1-531)	binds	–
B1	–	binds
